According to PMC5009064:
These are yes or no findings as the source states them, for the method shown. For some of these results: In cells and extracts the contact can be indirect. Some results given as binding are weak or reduced against the parent protein; the word gives no strength. For some of these results: Tags and fused reporters may be left off the sequences shown.

The chains behind the UniProt entries cited, without tags or fusion partners. Where a name states a change or a piece, a line headed by the entry shows the natural chain unless it says otherwise.
UniProt Q9HC29: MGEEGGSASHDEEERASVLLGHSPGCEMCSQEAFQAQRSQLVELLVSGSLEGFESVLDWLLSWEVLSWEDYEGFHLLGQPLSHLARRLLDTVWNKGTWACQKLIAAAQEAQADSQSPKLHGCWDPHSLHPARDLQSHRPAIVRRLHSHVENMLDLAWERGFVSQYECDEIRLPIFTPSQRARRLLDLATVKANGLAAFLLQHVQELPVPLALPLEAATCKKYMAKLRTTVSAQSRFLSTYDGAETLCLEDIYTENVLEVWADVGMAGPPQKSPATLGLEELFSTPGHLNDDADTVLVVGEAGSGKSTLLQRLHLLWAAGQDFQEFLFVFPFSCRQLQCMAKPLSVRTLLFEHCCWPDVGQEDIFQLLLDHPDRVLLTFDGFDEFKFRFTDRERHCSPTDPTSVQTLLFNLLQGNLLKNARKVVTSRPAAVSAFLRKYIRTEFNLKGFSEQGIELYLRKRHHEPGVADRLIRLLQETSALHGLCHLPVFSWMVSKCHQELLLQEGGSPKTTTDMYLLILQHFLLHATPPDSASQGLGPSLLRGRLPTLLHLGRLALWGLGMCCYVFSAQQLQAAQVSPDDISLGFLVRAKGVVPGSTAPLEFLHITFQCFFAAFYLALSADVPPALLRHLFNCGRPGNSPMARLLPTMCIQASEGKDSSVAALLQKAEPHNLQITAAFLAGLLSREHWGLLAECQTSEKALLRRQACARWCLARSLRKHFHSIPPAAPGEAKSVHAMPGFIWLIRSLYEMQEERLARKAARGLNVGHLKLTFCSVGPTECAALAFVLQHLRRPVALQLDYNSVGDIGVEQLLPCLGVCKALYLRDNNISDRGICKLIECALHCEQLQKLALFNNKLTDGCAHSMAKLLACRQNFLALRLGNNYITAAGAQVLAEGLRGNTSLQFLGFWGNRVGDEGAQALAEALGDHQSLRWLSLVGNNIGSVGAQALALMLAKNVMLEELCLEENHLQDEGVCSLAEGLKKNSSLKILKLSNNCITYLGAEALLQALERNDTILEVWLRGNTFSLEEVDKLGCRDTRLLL
UniProt Q96EP0: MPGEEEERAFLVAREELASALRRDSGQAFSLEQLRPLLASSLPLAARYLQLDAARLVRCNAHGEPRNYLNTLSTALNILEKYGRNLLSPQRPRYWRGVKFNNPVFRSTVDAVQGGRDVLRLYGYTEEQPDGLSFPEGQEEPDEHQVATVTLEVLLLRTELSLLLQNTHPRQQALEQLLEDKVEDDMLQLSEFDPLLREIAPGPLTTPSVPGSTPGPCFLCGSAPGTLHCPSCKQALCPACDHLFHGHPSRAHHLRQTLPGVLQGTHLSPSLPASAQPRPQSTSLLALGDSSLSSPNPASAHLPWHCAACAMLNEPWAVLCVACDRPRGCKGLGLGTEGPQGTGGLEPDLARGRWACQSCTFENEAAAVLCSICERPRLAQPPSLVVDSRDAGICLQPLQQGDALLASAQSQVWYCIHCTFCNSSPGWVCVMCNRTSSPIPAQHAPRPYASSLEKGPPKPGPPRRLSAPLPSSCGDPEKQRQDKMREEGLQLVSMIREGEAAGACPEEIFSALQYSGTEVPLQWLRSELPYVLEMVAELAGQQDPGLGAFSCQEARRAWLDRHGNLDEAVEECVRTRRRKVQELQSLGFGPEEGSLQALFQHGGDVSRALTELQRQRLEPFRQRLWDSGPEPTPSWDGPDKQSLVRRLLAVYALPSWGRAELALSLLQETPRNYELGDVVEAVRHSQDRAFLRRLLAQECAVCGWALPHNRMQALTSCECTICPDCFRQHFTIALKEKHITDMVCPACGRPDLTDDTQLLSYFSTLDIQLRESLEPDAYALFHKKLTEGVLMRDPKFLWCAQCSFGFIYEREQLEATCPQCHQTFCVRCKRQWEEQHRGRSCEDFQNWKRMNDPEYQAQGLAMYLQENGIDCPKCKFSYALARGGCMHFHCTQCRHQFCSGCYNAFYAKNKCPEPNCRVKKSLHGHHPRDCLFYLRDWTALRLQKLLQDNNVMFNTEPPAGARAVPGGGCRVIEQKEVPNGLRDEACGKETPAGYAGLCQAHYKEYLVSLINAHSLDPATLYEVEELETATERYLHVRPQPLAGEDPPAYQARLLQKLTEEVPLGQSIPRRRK

Experiments:
NOD2-TAP = NOD2-TAP (UniProt Q9HC29); assay: co-IP; A549 cells stably transfected with NOD2-TAP, stimulated with L18-MDP (200 ng/ml), NOD2-SC purified, western blot
[1] = target: T1, GFP-SPATA2 fragment comprising amino acids 1-116 (UniProt Q9UM82); assay: co-IP; truncated forms of GFP-SPATA2 expressed in HEK293 cells; anti-GFP IP, western blot for HOIP and CYLD
T1 sequence: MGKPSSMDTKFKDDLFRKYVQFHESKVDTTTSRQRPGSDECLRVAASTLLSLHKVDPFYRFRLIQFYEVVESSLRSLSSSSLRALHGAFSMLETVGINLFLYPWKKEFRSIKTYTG

CYLD-USP domain = target: T2, CYLD-USP domain (UniProt Q9NQC7); assay: condition: 398 μM HOIP-PUB domain into the CYLD-USP domain at 40 μM; ITC; 293 K, ITC-200; 25 mM HEPES pH 7.5, 150 mM NaCl, 0.5 mM TCEP; 20 injections of 2 ul HOIP-PUB domain into peptide or domain in the cell; 1:1 binding model; both purified
T2 sequence: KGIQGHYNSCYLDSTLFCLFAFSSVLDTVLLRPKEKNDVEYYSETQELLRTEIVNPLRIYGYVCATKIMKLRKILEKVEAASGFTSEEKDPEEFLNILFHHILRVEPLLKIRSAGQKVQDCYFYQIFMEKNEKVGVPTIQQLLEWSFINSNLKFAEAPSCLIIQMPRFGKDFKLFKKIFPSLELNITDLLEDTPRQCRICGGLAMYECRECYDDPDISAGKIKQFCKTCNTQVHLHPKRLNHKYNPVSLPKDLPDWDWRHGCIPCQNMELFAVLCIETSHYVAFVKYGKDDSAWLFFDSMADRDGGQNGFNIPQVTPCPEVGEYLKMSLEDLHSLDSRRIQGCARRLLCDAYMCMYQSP

[2] = target: T3, peptide derived from the PIM motif of OTULIN; assay: ITC; 293 K, ITC-200; 25 mM HEPES pH 7.5, 150 mM NaCl, 0.5 mM TCEP; 20 injections of 2 ul HOIP-PUB domain into peptide or domain in the cell; 1:1 binding model; both purified
T3 sequence (peptide): AEHEEDMYRA

binding (NOD2-TAP)	binding [1]	binding (CYLD-USP domain)	binding [2]	Substance
binds	no binding			HOIP (from UniProt Q96EP0 1-1072) (enzyme)
		no binding	binds	HOIP-PUB domain (from UniProt Q96EP0 71-142) (domain or fragment)
